Experimental data: PubChem BioAssay AID1159590 (NIAID, 2016)
The deposit covers 756 reagents; this is a random part of them. In the full data, 128 (17%) are marked active. 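Calls are two-sided: both reduced and increased p65 nuclear entry count as active.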 Entries without a mark were called inactive. The numbers tell different reagents against one gene apart. The record does not give: the amount of reagent.

- Assay: 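Finding genes that mouse macrophage TLR2 agonist signalling relies on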
- Cells: mouse RAW264.7 macrophage reporter cells expressing GFP-p65 and a Tnf promoter-mCherry
- Reagent: single siRNA against mouse genes
- Duration: 48 to 72 hours after siRNA transfection, then 40 minutes of ligand
- Treatment: Pam3CSK4 (TLR2/1 agonist) for 40 minutes before fixation; dose not given
- Detection: 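GFP-p65 nuclear to cytoplasmic intensity ratio from imaging, normalised per plate by median and MAD, given as robust z against negative controls, mean of replicates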
- Scale: p65 nuclear entry z-score: higher = more p65 moved into nuclei than in negative-control wells
- Call rule: In these data the active calls have p65 nuclear entry z-score, replicate mean at about -1.5 or lower, or at about 1.5 or higher
- Meaning of the calls: active = strong change, up or down; inactive = little change

The first 3 entries as a preview:
no.	target	siRNA no.	p65 nuclear entry z-score, replicate mean
1	Relb	1	-0.68
2	Relb	2	0.0281
3	Relb	3	-2.33 (active)

Results, from the start:
no.	target	siRNA no.	p65 nuclear entry z-score, replicate mean
1	Relb	1	-0.68
2	Relb	2	0.0281
3	Relb	3	-2.33 (active)
4	Relb	4	-0.364
5	Relb	5	1.47
6	Relb	6	-0.685
7	Ikbkg	1	-1.19
8	Ikbkg	2	-0.061
9	Ikbkg	3	-0.856
10	Ikbkg	4	-1.55 (active)
11	Ikbkg	5	-0.765
12	Ikbkg	6	-0.397
13	Ifnb1	1	1.7 (active)
14	Ifnb1	2	0.296
15	Ifnb1	3	-1.55 (active)
16	Ifnb1	4	0.676
17	Ifnb1	5	-0.894
18	Ifnb1	6	-0.426
19	Cd14	1	-0.83
20	Cd14	2	-2.12 (active)
21	Cd14	3	-1.4
22	Cd14	4	2.9 (active)
23	Cd14	5	1.08
24	Cd14	6	-0.654
25	Tlr7	1	-1.04
26	Tlr7	2	-1.79 (active)
27	Tlr7	3	2 (active)
28	Tlr7	4	-0.417
29	Tlr7	5	-1.04
30	Tlr7	6	1.6 (active)
31	Cd180	1	-0.997
32	Cd180	2	0.425
33	Cd180	3	1.2
34	Cd180	4	-0.379
35	Cd180	5	-0.742
36	Cd180	6	-0.802
37	Ticam2	1	0.00753
38	Ticam2	2	0.211
39	Ticam2	3	-2.3 (active)
40	Ticam2	4	-0.855
41	Ticam2	5	-1.64 (active)
42	Ticam2	6	-0.345
43	Egr1	1	-1
44	Egr1	2	-0.183
45	Egr1	3	-0.536
46	Egr1	4	-0.588
47	Egr1	5	3.46 (active)
48	Egr1	6	-0.831
